Structures are written as SMILES. Some of the results follow. Most entries show no effect beyond the scatter of the controls.

For this test, the system named is hPSC-derived cortical neurons (WA09). Put plainly: KCl-induced FOS+/EGR-1+ double-positive nuclei fraction z-score (KCl minus unstimulated); higher = stronger activity-induced IEG response. The note with it: 5 µM; treatment: days 7-14 after plating, readout day 21.
With `C[C@@H]1COCCN1c1cc(C2([S@](C)(=N)=O)CC2)nc(-c2cc[nH]c3nccc2-3)n1`, the “KCl-induced FOS+/EGR-1+ double-positive nuclei fraction z-score” value is -0.309.
For `CCOc1ccc2nc(S(N)(=O)=O)sc2c1` [Ethoxzolamide] the value was -1.02.
For `COC(=O)C1=C(C)NC(C)=C(C(=O)OCCN2CCN(C(c3ccccc3)c3ccccc3)CC2)C1c1cccc([N+](=O)[O-])c1` (configuration not stated) [Manidipine] the value was -0.269; for `Oc1c(Br)cc(Br)c2cccnc12` [Broxyquinoline], 1.89.
Regarding `C[C@H](CCC(=O)O)[C@H]1CC[C@H]2[C@@H]3[C@H](O)C[C@@H]4C[C@H](O)CC[C@]4(C)[C@H]3CC[C@]12C` [Chenodeoxycholic Acid], the “KCl-induced FOS+/EGR-1+ double-positive nuclei fraction z-score” value was determined as 0.717.
For `Oc1ccc(Cl)c2cccnc12` [Cloxiquine] the value was -0.113.
For `CCOC(=O)c1c2c3c(cccc3[nH]c1=O)C(=O)c1ccccc1-2` the value was -0.621.

The values are drawn from the supplement of paper PMC11348887.
